No constants are given. Whether binding was seen depends on the method and setting. Binding seen in cells or lysates may run through a third protein. A result given as binding can be weak or reduced; the word gives no strength. Where a sequence is shown, tags or fusion partners need not be part of it.

This assay concerns the target T1, Myc-tagged Cep85 (human) (UniProt Q6P2H3).
T1 sequence: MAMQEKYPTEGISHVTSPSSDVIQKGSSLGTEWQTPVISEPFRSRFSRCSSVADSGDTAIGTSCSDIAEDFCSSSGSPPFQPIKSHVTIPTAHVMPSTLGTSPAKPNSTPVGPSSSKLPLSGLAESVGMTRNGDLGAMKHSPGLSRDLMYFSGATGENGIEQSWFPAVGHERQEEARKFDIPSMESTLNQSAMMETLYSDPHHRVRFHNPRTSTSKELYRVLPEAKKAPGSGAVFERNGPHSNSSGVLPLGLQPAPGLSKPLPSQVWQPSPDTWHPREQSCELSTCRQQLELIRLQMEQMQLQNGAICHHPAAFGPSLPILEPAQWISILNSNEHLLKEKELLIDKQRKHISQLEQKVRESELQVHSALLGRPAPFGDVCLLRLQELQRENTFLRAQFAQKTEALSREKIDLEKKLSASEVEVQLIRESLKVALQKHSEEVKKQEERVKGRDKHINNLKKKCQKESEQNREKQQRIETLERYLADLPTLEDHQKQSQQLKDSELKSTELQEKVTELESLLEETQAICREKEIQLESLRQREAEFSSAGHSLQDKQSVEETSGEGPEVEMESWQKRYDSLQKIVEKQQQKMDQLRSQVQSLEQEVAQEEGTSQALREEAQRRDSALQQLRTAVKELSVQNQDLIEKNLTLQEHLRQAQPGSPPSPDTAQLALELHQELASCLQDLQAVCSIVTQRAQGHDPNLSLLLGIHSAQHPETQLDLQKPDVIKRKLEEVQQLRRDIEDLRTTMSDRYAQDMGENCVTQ
As to the kind of experiment: co-IP; Myc–Cep85 constructs and HA–Nek2A constructs co-expressed in HEK293T cells; lysis in 50 mM Tris-HCl pH 7.4, 150 mM NaCl, 1 mM EDTA, 0.5% NP-40; antibody 2 h at 4°C, Protein A/G PLUS-Agarose; western blotting. In general terms: In western blotting, separated proteins are transferred to a membrane and probed.

In the case of “HA–Nek2A truncated mutant D1 (N-terminal region) (human (cloned from HEK293T)) (domain or fragment)”, the binding result was “no binding”.
For “HA–Nek2A truncated mutant D2 (C-terminal region) (human (cloned from HEK293T)) (domain or fragment)” the value was “binds”.

For the origin of these results see paper PMC4582193.
